Some of the results follow. Further columns of the screen follow, without active or inactive calls. Most of these compounds were active or inconclusive in the main read-out, so they are no random draw. The note in brackets gives the kind of curve behind each potency; many fits are weak.
Assay: qHTS Assay for Lipid Storage Modulators in Drosophila S3 Cells;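 for cell number change: cells counted by Cell Tracker Red CMTPX staining in the red channel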
Settings: BODIPY lipid droplet fluorescence, 18-24 h; for cell number change: measured here: cell count max response, cells fed with added oleic acid
How it was run: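 Laser-scanning cytometry quantifies lipid droplet accumulation (500–530 nm total intensity; droplet/cell object ratio) in oleic acid-fed (400 uM added) Drosophila S3 cells treated with a concentration series. 20 uM Triacsin C defined 100% inhibition.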

[1] = measured here: lipid fluorescence (Fed channel) AC50, cells fed with added oleic acid
[2] = measured here: cell number channel AC50, cells fed with added oleic acid

| SMILES | cell number change | AC50 [1] | AC50 [2] |
| --- | --- | --- | --- |
| COc1ccc(N(C(=O)CNC(=O)c2ccco2)C(C(=O)NC2CCCCC2)c2ccncc2)cc1 (stereo not given) | 5.65% | 6.51 µM [rising, single point] | – |
| CCN(c1ccccc1)S(=O)(=O)c1cc(OC)ccc1OC | 27.5% | 29.1 µM [rising, single point] | – |
| O=C(c1ccco1)N1CCN(C(=O)c2cc3c(s2)-c2ccccc2OC3)CC1 | -1.63% | 0.651 µM [rising, full curve, poor fit] | – |
| COCCNS(=O)(=O)c1ccc(OCC(=O)OC)c(Cl)c1 | -31.2% | 11.6 µM [falling, partial curve] | 8.2 µM [falling, partial curve] |
| CC1CCC(C(C)C)C(OC(=O)COC(=O)c2ccc(=O)[nH]c2)C1 (stereo not given) | -35% | – | 32.6 µM [falling, single point] |
| COc1ccc(CN2CCN(C(=O)CC(C)C)CC2)cc1Br | 16.3% | 8.2 µM [rising, single point] | – |
| CCC(Sc1ncccc1C(=O)OCCN1CCCC1=O)C(=O)NCc1ccco1 (stereo not given) | 23.2% | 23.1 µM [rising, partial curve, poor fit] | – |
| CC1CN(CCCCOc2cccc(Oc3ccccc3)c2)CC(C)O1 (stereo not given) | 65.5% | 29.1 µM [rising, partial curve] | 18.4 µM [rising, partial curve] |
| COc1ccc2c(c1)c(=O)c(C(=O)c1ccc(Cl)cc1)cn2CC(=O)Nc1ccc(F)cc1 | 15.3% | 0.731 µM [rising, full curve, poor fit] | – |
| COc1ccccc1NC(=O)CSc1nnc(CC(=O)Nc2cccc(C(F)(F)F)c2)n1C | 180% | 20.6 µM [rising, partial curve] | 11.6 µM [rising, partial curve] |
| COc1ccc(N2CCN(CC(O)COCCOc3ccc(Br)cc3)CC2)cc1 (stereo not given) | -20% | 29.1 µM [rising, single point] | – |
| COC(=O)c1ccc(NC(=O)CNC(=O)C2CCCCC2)cc1 | 11.2% | – | – |
| C=CCN(CC=C)CCOc1ccccc1[N+](=O)[O-] | 5.85% | 0.231 µM [rising, full curve] | – |
| COC(=O)C1(C)NC(c2ccccc2C)C2C(=O)N(c3ccc(F)cc3)C(=O)C21 (stereo not given) | 30.2% | 29.1 µM [rising, single point] | 0.82 µM [rising, full curve] |
| COc1ccc(N2CCN(C(=O)c3ccc(CS(=O)c4cccc(C)c4)o3)CC2)cc1 (stereo not given) | -39.5% | – | 0.206 µM [falling, full curve, poor fit] |
| CC(=O)NC1=NN(C(C)=O)C2(S1)C(=O)N(CC(C)C)c1ccc(C)cc12 (stereo not given) | -26.9% | 29.1 µM [falling, single point] | 0.00517 µM [falling, full curve, poor fit] |
| O=C(CSc1cc(Cl)ccc1Cl)NC1CCCC1 | 27% | 6.51 µM [rising, single point] | – |
| Cc1ccc(N(CC(=O)NCc2ccco2)C(=O)CCC(=O)Nc2ccccn2)c(C)c1 | -10.3% | – | – |
| Cc1c(NC(=O)C(C)NCC2CCCO2)c(=O)n(-c2ccccc2)n1C (stereo not given) | 9.55% | 0.517 µM [falling, single point] | – |
| CCN1CCN(c2nc(N)c([N+](=O)[O-])c(Nc3cccc(C)c3)n2)CC1 | -4.55% | – | – |

| SMILES | cell number change | AC50 [1] | AC50 [2] |
| --- | --- | --- | --- |
| CC(=O)N1c2ccc(S(=O)(=O)N3CCCC3C(=O)NCc3ccccc3Cl)cc2CC1C (stereo not given) | -1.15% | 0.164 µM [rising, full curve, poor fit] | – |
| C=CCOc1ccc(C2=NOC(C(=O)Nc3ccc4c(c3)OCCO4)C2)cc1OC (stereo not given) | – | 0.231 µM [rising, full curve, poor fit] | – |
| Cc1cc2nc(C)n(CCCNC(=O)Nc3ccccc3)c2cc1C | 31.7% | – | 0.411 µM [rising, full curve] |
| O=C(NCCCN1CCN(c2ccccc2)CC1)C1CCCN(c2ncnc3c2nc2n3CCCCC2)C1 (stereo not given) | -78.2% | – | – |
| O=C(Nc1ccccc1)C1CCCN(C(=O)c2ccc(F)cc2)C1 (stereo not given) | 1.91% | 29.1 µM [rising, single point] | – |
| COc1cc2ccccc2cc1C(=O)Nc1ccc2oc(=O)ccc2c1 | 5.26% | – | – |
| COc1cc(/C=C/[N+](=O)[O-])ccc1OC(=O)c1cc2ccccc2oc1=O | -0.739% | 6.51 µM [falling, single point] | – |
| Cc1nn(CCO)c(C)c1Oc1ccccc1O | -24% | 2.06 µM [falling, partial curve, poor fit] | 0.00517 µM [falling, full curve, poor fit] |
| Cc1ccc(S(=O)(=O)N(C)C)cc1NC(=O)COC(=O)c1c(C)noc1C | -33.3% | – | 18.4 µM [falling, single point] |
| CC(=O)Nc1cccc(NC(=S)Nc2cccc3ccccc23)c1 | 11.4% | 18.4 µM [rising, single point] | 2.91 µM [rising, partial curve, poor fit] |
| Cc1ccccc1CN(C)C(=O)COC(=O)CSc1ccc([N+](=O)[O-])cc1 | -32.9% | – | 4.61 µM [falling, full curve, poor fit] |
| CCNC(=S)NNC(=O)c1ccccc1OC(F)F | 24.7% | – | 0.731 µM [rising, full curve, poor fit] |
| COc1ccccc1-c1nnc(SCC(=O)Nc2ccc(Cl)cc2Cl)o1 | – | – | 0.00461 µM [rising, full curve, poor fit] |
| CCc1nnc(NC(=O)c2cccc(S(=O)(=O)N(C)c3ccc(OC)cc3)c2)s1 | – | 0.58 µM [falling, single point] | – |
| CCN(CC)S(=O)(=O)c1cccc(C(=O)NNC(=O)C2=NN(c3ccccc3)C(=O)CC2)c1 | 1.19% | 4.11 µM [rising, partial curve] | – |
| COc1cccc(Nc2nc(-c3ccc(O)cc3)cs2)c1 | – | 14.6 µM [rising, partial curve] | 0.13 µM [rising, partial curve, poor fit] |
| COCCN(CCOC)S(=O)(=O)c1ccc(C(=O)Nc2nc(-c3ccccc3)c(C(=O)c3ccccc3)s2)cc1 | 30.3% | – | 10.3 µM [rising, single point] |
| CC(=O)c1cc2c(cc1NC(=O)c1ccco1)OCCO2 | -44.1% | 29.1 µM [falling, single point] | 29.1 µM [falling, single point] |
| CCN(Cc1ccc(O)cc1)CC1CCCN(CCc2cccc(F)c2)C1 (stereo not given) | -13.8% | 0.146 µM [rising, partial curve, poor fit] | – |
| Cc1cc(C)cc(OCC(=O)OCC(=O)N2CC(=O)Nc3ccccc32)c1 | -43.9% | – | 18.4 µM [falling, single point] |

Copied from the list:
AC50 [2] with `COc1ccccc1-c1nnc(SCC(=O)Nc2ccc(Cl)cc2Cl)o1` is entered as 0.00461 µM [rising, full curve, poor fit]
AC50 [2] with `Cc1cc(C)cc(OCC(=O)OCC(=O)N2CC(=O)Nc3ccccc32)c1` is entered as 18.4 µM [falling, single point]

Continued.

| SMILES | cell number change | AC50 [1] | AC50 [2] |
| --- | --- | --- | --- |
| COc1cc2c(cc1OC)CN(c1ccc([N+](=O)[O-])cc1Cl)CC2 | 11.8% | 7.31 µM [rising, partial curve] | – |
| CCn1c(SCC(=O)Nc2ccccc2)nnc1-c1cccs1 | 0.454% | 0.92 µM [rising, full curve, poor fit] | – |
| O=C(NC1CCSC1=O)c1cccc(Cl)c1 (stereo not given) | -36.2% | 0.103 µM [falling, full curve, poor fit] | 32.6 µM [falling, single point] |
| O=C(Cc1ccccc1)c1c[nH]c(C(=O)NCc2ccncc2)c1 | 22.8% | – | – |
| N#Cc1c2n(c3c(=O)[nH]cnc13)CCCC2 | 8.32% | 0.058 µM [rising, full curve, poor fit] | – |
| O=C(N/C(=C/c1ccc(Br)cc1)C(=O)N1CCCC1)c1ccccc1F | 25.4% | 14.6 µM [rising, partial curve] | – |
| CCSc1nc2c(sc3ccccc32)c(=O)n1C(C)C | – | 6.51 µM [rising, partial curve] | 6.51 µM [rising, partial curve, poor fit] |
| O=S(=O)(NC1CC1)c1ccc(S(=O)(=O)N(Cc2ccccn2)C2CCCC2)cc1 | – | 0.58 µM [rising, single point] | – |
| Cc1ccc(C(=O)N/N=C/c2c[nH]c3ccccc23)o1 | -9.46% | – | – |
| Cc1cc(C)nc(N2CCCC(C(=O)Nc3ccc4c(c3)OCO4)C2)n1 (stereo not given) | 6.22% | 0.366 µM [rising, full curve] | – |
| Cc1ccc(NC(=O)C2CCCN2S(=O)(=O)c2ccc3c(c2)n(C)c(=O)c(=O)n3C)cc1 (stereo not given) | -7.04% | – | – |
| O=C(CN1C(=O)NC2(CCc3ccccc32)C1=O)Nc1ccccc1C(F)(F)F (stereo not given) | 2.05% | 0.0259 µM [rising, full curve, poor fit] | – |
| CCOc1ccccc1NC(=O)c1ccccc1-c1nc(-c2ccccc2)no1 | -34.9% | 2.06 µM [rising, full curve] | 20.6 µM [falling, partial curve, poor fit] |
| Cn1c(CC(=O)Nc2ccccc2)nnc1SCC(=O)Nc1ccc(N2CCOCC2)cc1 | 6.76% | 29.1 µM [rising, partial curve, poor fit] | – |
| Cc1cccc(C(CC(=O)O)NC(=O)C(F)(F)F)c1 (stereo not given) | -1.7% | – | 0.00517 µM [falling, full curve, poor fit] |
| COc1ccc(CNC(=O)CCC(=O)Nc2nnc(C(F)(F)F)s2)cc1 | -34.1% | – | 8.91 µM [falling, partial curve] |
| CC(C)CCN(C(=O)c1cc(=O)[nH]c2ccccc12)c1c(N)n(Cc2ccccc2)c(=O)[nH]c1=O | 26.5% | 0.366 µM [falling, partial curve] | – |
| CCNC(=S)N/N=C/c1ccc(C(=O)O)cc1 | 34% | 0.146 µM [rising, full curve] | 0.0103 µM [rising, full curve, poor fit] |

One compound at a time, from the list above. Values in the order: cell number change	AC50 [1]	AC50 [2]
`COc1ccc(CNC(=O)CCC(=O)Nc2nnc(C(F)(F)F)s2)cc1` as listed: -34.1%	–	8.91 µM [falling, partial curve]
`CCNC(=S)N/N=C/c1ccc(C(=O)O)cc1` as listed: 34%	0.146 µM [rising, full curve]	0.0103 µM [rising, full curve, poor fit]
`O=C(NC1CCSC1=O)c1cccc(Cl)c1` (stereo not given) as listed: -36.2%	0.103 µM [falling, full curve, poor fit]	32.6 µM [falling, single point]

Source: PubChem BioAssay AID2685 (National Center for Advancing Translational Sciences (NCATS), 2010)
